Test results from doi:10.1101/821637.
Changes are numbered by the printed parent chain. Results are given in words; binding and its absence hold for the method and conditions named. In cells and extracts the contact can be indirect. Some entries that bind do so weakly or less than the wild type. For part of these data: Where a sequence is shown, tags or fusion partners need not be part of it. Blank lines part the entries; values can stand above or below the binder they belong to.

Experiments:
Assay in all cases: co-IP
[1] = target: T1, endogenous UCP3 of differentiated C2C12 myotubes (mouse (endogenous in C2C12)) (UniProt P56501)
T1 sequence: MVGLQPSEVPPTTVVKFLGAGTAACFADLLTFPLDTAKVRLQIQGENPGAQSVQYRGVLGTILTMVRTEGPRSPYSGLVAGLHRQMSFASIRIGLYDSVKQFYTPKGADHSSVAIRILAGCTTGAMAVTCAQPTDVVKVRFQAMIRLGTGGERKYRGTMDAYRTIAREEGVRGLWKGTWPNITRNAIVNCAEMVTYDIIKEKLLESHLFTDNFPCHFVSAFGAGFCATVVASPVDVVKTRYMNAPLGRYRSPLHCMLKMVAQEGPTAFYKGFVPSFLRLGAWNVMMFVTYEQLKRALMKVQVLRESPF

[2] = target: T2, Myc-tagged mouse ECH1 construct (ECH1-Myc) (mouse) (UniProt O35459)
T2 sequence: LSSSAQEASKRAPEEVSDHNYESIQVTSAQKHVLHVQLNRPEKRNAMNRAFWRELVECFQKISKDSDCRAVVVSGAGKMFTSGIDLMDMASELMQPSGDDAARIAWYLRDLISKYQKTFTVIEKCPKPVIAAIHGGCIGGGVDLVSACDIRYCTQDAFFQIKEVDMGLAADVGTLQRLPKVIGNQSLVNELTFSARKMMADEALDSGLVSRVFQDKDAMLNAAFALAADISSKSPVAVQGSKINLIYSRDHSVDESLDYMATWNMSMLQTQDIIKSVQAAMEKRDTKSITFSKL

[3] = target: T3, Myc-tagged ECH1 mutant D176N-Myc (mouse) (UniProt O35459)
T3 sequence: T2 sequence with D143N

- binding [1]: binds
B1: endogenous ECH1 of differentiated C2C12 myotubes (enzyme, UniProt O35459 34-327)
chain: T2 sequence

- binding [2]: binds
- binding [3]: binds
B2: V5-tagged mouse UCP3 construct (UCP3-V5) (protein, UniProt P56501 1-308)
chain: T1 sequence
